The values below come from the supplement of paper PMC11006884.

Chains of the proteins cited; added tags and fusions are not shown. Lines headed by an entry give the natural chain unless they say otherwise; changes in a name come on top.
UniProt Q9UGI8: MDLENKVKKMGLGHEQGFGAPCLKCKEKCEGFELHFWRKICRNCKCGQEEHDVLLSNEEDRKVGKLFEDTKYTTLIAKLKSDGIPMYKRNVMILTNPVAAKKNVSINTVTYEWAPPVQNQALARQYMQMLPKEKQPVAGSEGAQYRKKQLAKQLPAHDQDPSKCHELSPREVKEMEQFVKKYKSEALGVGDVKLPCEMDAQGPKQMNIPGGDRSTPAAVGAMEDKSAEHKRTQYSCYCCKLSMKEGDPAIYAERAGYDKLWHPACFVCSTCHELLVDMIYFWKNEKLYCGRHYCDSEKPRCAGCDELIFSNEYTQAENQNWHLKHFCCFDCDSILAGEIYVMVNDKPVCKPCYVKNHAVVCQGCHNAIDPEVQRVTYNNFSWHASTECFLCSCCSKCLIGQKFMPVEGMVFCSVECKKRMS
UniProt Q9NZT2: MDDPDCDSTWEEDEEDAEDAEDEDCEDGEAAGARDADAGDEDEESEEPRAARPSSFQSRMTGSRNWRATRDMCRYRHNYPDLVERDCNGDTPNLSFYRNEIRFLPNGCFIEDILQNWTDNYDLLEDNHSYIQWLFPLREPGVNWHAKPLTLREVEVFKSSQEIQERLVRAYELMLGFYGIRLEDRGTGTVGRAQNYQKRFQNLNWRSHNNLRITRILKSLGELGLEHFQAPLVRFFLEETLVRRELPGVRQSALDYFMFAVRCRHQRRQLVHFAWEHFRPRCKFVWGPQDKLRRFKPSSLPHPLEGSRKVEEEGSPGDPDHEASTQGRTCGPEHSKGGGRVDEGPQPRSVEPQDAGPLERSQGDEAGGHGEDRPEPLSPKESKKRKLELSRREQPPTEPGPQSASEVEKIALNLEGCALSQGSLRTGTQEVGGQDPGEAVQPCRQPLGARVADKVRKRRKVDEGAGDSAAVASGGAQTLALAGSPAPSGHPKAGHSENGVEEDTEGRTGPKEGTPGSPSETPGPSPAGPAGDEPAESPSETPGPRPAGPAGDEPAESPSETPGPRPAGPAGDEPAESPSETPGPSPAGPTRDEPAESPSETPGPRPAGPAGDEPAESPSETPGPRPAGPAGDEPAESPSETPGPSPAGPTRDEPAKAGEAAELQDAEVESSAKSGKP
UniProt Q9NXA8: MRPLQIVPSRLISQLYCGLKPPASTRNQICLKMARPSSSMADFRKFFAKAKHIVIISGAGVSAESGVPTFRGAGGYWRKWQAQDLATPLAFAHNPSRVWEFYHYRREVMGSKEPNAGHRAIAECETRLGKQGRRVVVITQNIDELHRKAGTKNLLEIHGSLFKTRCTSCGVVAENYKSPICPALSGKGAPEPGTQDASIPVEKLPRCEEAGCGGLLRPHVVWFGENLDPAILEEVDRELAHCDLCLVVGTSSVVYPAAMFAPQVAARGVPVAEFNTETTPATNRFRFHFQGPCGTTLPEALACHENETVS
UniProt Q9NY33: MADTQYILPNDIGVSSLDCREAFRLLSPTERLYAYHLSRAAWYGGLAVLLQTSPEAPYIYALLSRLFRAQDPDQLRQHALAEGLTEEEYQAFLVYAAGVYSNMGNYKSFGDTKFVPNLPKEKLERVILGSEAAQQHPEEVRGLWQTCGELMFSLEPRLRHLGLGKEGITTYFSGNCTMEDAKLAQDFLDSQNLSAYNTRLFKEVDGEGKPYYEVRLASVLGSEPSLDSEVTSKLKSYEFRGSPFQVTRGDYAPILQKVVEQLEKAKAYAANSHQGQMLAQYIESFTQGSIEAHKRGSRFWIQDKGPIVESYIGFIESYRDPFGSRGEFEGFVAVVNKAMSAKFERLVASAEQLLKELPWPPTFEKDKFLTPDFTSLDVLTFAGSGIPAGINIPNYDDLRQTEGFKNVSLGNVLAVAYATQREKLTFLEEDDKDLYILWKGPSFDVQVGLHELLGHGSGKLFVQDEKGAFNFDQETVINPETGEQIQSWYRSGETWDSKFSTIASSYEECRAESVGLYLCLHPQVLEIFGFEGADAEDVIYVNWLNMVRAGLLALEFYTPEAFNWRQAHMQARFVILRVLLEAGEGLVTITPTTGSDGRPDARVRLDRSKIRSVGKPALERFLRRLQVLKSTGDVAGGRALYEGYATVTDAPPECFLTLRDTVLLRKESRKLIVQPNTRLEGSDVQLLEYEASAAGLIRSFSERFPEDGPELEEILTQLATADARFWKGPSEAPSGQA
UniProt Q9UGV2: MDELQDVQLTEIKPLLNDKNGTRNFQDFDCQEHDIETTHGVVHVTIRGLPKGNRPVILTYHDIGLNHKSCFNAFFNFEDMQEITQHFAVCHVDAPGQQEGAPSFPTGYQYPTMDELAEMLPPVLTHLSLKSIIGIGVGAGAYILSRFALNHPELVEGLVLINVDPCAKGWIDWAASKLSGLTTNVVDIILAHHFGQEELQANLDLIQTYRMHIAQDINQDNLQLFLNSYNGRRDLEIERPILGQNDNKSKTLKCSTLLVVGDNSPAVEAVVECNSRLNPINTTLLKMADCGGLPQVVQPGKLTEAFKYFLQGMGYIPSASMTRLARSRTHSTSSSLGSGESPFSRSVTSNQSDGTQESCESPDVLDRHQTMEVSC
UniProt Q9NY12: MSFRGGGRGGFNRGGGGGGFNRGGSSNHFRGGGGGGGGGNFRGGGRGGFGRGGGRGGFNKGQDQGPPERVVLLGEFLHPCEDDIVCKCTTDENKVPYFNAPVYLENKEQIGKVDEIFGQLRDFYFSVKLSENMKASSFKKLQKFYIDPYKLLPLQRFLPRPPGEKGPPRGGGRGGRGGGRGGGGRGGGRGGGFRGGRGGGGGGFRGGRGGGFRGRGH
UniProt Q9P289: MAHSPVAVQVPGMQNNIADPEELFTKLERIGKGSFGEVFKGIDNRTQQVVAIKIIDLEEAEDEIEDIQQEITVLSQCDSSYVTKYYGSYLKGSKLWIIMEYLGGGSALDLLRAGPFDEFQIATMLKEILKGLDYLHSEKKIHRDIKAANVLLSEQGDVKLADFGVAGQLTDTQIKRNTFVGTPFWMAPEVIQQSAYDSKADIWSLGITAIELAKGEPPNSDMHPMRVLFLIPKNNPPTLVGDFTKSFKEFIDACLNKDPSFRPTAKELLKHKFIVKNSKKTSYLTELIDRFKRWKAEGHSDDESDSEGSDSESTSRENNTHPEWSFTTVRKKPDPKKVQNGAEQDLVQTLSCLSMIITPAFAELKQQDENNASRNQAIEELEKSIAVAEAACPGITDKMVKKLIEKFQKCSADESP
UniProt Q9NY27: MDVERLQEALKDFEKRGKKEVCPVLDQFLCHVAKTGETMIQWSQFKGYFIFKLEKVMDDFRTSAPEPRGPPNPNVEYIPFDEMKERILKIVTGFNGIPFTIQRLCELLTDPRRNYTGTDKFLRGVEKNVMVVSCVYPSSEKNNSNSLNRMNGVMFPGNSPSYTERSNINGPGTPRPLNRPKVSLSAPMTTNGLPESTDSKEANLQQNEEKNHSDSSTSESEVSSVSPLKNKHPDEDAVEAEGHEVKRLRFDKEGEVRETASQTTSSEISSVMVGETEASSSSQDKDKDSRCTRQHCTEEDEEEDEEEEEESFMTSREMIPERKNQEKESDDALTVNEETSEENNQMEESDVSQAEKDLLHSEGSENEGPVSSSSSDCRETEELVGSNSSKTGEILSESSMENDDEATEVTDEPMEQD
UniProt Q9NUQ3: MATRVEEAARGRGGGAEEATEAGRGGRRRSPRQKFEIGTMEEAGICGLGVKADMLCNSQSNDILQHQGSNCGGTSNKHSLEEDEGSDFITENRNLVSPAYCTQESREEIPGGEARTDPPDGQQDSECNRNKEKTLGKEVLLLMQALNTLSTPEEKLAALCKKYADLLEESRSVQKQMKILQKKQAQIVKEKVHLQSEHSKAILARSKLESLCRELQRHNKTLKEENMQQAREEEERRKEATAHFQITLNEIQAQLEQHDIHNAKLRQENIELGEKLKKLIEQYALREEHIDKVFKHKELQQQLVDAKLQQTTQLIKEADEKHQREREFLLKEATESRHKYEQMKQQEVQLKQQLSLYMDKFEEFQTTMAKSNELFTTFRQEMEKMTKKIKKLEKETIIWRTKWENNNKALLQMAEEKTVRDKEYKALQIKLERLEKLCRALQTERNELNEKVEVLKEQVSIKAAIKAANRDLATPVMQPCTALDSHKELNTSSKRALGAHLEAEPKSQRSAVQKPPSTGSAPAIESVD
UniProt Q9NYH9: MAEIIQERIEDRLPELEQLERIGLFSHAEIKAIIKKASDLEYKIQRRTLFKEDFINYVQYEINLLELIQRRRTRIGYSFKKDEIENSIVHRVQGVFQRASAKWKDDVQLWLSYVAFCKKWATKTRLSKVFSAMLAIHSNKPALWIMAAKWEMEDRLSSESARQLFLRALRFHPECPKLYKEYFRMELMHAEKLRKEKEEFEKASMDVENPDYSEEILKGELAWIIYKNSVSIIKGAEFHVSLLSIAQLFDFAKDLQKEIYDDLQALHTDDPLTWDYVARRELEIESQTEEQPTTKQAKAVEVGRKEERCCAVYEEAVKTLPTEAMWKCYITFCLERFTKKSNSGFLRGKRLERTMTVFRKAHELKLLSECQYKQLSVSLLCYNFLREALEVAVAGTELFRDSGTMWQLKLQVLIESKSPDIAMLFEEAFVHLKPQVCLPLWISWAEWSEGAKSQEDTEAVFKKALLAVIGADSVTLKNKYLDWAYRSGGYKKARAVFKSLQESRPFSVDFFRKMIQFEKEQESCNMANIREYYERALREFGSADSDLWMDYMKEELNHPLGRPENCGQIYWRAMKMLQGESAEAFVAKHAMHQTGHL
UniProt Q9UHB6: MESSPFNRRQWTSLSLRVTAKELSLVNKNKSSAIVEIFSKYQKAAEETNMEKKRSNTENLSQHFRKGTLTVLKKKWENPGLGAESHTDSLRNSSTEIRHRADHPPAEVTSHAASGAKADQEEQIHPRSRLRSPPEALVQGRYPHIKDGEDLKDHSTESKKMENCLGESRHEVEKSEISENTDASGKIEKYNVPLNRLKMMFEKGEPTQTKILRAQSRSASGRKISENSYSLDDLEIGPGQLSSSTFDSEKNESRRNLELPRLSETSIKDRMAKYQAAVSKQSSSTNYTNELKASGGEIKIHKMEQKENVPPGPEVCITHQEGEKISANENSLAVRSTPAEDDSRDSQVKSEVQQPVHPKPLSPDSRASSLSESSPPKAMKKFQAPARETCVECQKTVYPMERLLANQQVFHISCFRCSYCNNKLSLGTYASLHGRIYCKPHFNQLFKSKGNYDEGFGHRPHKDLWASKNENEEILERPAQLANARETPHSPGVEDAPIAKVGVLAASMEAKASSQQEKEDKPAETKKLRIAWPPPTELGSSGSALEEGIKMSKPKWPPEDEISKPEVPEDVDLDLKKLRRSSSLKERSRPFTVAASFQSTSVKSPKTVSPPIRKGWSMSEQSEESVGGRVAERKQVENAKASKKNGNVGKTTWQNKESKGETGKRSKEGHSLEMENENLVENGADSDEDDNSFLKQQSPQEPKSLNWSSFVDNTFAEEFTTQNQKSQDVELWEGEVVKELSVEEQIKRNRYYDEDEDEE
UniProt Q9UHB9: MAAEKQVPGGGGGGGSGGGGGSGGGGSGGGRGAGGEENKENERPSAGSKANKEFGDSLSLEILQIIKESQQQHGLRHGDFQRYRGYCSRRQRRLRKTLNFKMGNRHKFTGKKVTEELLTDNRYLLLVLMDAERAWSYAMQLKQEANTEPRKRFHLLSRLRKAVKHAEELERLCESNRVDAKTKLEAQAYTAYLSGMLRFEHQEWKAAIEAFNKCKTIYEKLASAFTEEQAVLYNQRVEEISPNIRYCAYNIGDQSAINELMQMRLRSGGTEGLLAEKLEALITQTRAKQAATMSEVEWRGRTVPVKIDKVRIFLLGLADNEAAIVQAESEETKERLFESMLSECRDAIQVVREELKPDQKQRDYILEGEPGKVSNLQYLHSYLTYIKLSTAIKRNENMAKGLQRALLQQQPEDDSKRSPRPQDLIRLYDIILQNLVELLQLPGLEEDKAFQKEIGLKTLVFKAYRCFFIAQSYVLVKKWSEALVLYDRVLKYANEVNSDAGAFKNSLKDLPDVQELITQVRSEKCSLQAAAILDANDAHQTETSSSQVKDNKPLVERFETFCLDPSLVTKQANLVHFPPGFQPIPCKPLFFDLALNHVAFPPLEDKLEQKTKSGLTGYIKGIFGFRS
UniProt Q9NVG8: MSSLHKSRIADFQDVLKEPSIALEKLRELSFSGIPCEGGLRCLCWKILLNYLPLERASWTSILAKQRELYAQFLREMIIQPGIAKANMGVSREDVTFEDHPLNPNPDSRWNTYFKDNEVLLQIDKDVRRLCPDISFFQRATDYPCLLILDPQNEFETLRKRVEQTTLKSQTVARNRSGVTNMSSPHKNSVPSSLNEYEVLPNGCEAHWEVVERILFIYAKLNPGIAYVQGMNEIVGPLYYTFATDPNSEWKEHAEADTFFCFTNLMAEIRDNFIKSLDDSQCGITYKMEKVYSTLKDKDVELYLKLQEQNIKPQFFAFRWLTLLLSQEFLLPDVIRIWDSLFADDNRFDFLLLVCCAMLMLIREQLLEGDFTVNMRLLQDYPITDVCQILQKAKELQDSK

Only a part is listed here, and it is no random draw.

Compound in the assay: COC(=O)C#Cc1ccccc1 [methyl 3-phenylpropiolate]
Kind of assay: log2 ratio of iodoacetamide-alkyne labeling of the cysteine site, DMSO over compound (competition); higher = stronger covalent engagement of the cysteine by the compound, active = 1 or more. The note with it: 500 µM; treatment time 1 h; system: HEK293T cell lysate. In a few lines: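 Electrophile (500 µM) or vehicle was added to HEK293T lysate (2 mg/mL) for 1 h at ambient temperature before iodoacetamide alkyne labelling (1 h) and click coupling to sCIP-TMT reagents. After pooling, overnight trypsin digestion at 37 °C, streptavidin enrichment and acid elution, peptides were measured by Orbitrap Eclipse LC-MS/MS with FAIMS and quantified in FragPipe. Each cysteine's log2 competition ratio compares mean control-channel with mean compound-channel reporter intensity, control over compound. Data came from duplicate channels across three replicates, excluding cysteines quantified in only one replicate.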
On to BSDC1 C99 (UniProt Q9NW68), for which the “log2 ratio of iodoacetamide-alkyne labeling” value (shortened to “log2 ratio”) is inactive: 0.584. Take FASTKD2 C163 (UniProt Q9NYY8): the “log2 ratio” value was inactive: -0.227. For the target FAM120A C279 (UniProt Q9NZB2), the “log2 ratio” value is inactive: -0.00137. Take FAM120A C531 (UniProt Q9NZB2): the “log2 ratio” value is active: 1.68. In the case of CDKN2AIP C178 (UniProt Q9NXV6), the “log2 ratio” value was inactive: 0.391. On to ANKFY1 C675 (UniProt Q9P2R3), for which the “log2 ratio” value was inactive: 0.216.

Regarding DDX56 C286 (UniProt Q9NY93), the “log2 ratio” value was inactive: 0.51. On to TES C46 (UniProt Q9UGI8), for which the “log2 ratio” value is inactive: -0.228. Consider TES C196 (UniProt Q9UGI8), for which the “log2 ratio” value is inactive: 0.308. For OGFR C330 (UniProt Q9NZT2), the “log2 ratio” value was inactive: 0.375.

Consider SIRT5 C303 (UniProt Q9NXA8), for which the “log2 ratio” value was inactive: 0.176.

As for CHD7 C909 (UniProt Q9P2D1), the “log2 ratio” value is inactive: 0.159. In the case of DPP3 C147 (UniProt Q9NY33), the “log2 ratio” value was inactive: -0.0949.

On to NDRG3 C375 (UniProt Q9UGV2), for which the “log2 ratio” value is inactive: -0.0674. Regarding COQ3 C186 (UniProt Q9NZJ6), the “log2 ratio” value is inactive: 0.427. For the target MPP6 C298 (UniProt Q9NZW5), the “log2 ratio” value is inactive: 0.618. For FANCI C1209 (UniProt Q9NVI1) the value was inactive: 0.0742; for GAR1 C80 (UniProt Q9NY12), inactive: 0.132; for EPS15L1 C470 (UniProt Q9UBC2), inactive: 0.13. The same measure for NDUFB11 C141 (UniProt Q9NX14): inactive: 0.257. Turning to OGFR C417 (UniProt Q9NZT2), the “log2 ratio” value is inactive: 0.39. On to EXOC1 C650 (UniProt Q9NV70), for which the “log2 ratio” value is inactive: 0.174. UniProt Q9P289_C392: the “log2 ratio” value was inactive: 0.322. In the case of PPP4R2 C296 (UniProt Q9NY27), the “log2 ratio” value was inactive: 0.921. Consider UniProt Q9NUQ3_C56, for which the “log2 ratio” value is active: 1.97.

Take UTP6 C309 (UniProt Q9NYH9): the “log2 ratio” value was inactive: 0.0486.

For the target LIMA1 C316 (UniProt Q9UHB6), the “log2 ratio” value is inactive: 0.139. As for SRP68 C562 (UniProt Q9UHB9), the “log2 ratio” value was inactive: 0.0408.

For MRPS18A C108 (UniProt Q9NVS2), the “log2 ratio” value was inactive: 0.0912. OGFR C87 (UniProt Q9NZT2): the “log2 ratio” value is inactive: 0.518. As for UBAP1 C161 (UniProt Q9NZ09), the “log2 ratio” value is inactive: 0.103. Turning to ABCF3 C628 (UniProt Q9NUQ8), the “log2 ratio” value is inactive: -0.243.

Turning to NDOR1 C507 (UniProt Q9UHB4), the “log2 ratio” value is inactive: -0.123.

On to BCLAF1 C688 (UniProt Q9NYF8), for which the “log2 ratio” value is inactive: 0.524.

In the case of TES C361 (UniProt Q9UGI8), the “log2 ratio” value is inactive: 0.125. Consider TBC1D13 C131 (UniProt Q9NVG8), for which the “log2 ratio” value is inactive: -0.0249. For UniProt Q9NUQ3_C101 the value was inactive: 0.733.
